Screening data

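Change in HTT-promoter-driven luminescence in engineered HEK293 reporter cells after a 24 h treatment, measured at one concentration. Percent change in reporter signal versus vehicle (0%) down to no light (-100%); more negative values mean stronger inhibition of promoter activity.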

Values are in %. Common to all entries: at 57.5 µM (top of the series). Only part of the assay is listed here, not a random draw.

Compound | activity change (%)
CN(Cc1ccccc1)C(=O)c1cc(-c2cccc(Cl)c2)on1 | -7.83
CCc1ccccc1OCCSc1nc(-c2cccs2)nc2cc(=O)[nH]n12 | -16.73
COc1ccc(N2CCN(C(=O)c3cc4c(=O)n(Cc5cccs5)ccc4nc3C)CC2)cc1 | -41.7
COc1ccc(C2C(=O)N(C3CCCCCC3)CC(=O)N2CCc2ccc(Cl)cc2)cc1OC (centres unmarked) | -40.48
COc1cc(OC)c(Nc2nc3ccccc3c3nncn23)cc1Cl | -4.153
COc1cccc(CN2C(=O)N(c3ccc(C)cc3)C(=O)C2CC(=O)Nc2cc(OC)cc(OC)c2)c1 (centres unmarked) | -11.89
COC(=O)CN1C(=O)CSc2ccc(S(=O)(=O)Nc3ccc(F)c(Cl)c3)cc21 | -15.06
CC(C)(C)c1ccc(OCCSc2nc(-c3cccs3)nc3cc(=O)[nH]n23)cc1 | -8.636
COc1ccc(CNC(=O)C2CCN(S(=O)(=O)Cc3ccccc3)CC2)cc1 | -11.01
COC(=O)c1ccc(NC(=O)CCc2c(C)nn(-c3ccc(N4CCCCC4)nn3)c2C)cc1 | 6.82
O=S(=O)(Nc1ccc(-c2ccc(N3CCCCCC3)nn2)cc1)c1ccc(C(F)(F)F)cc1 | -16.52
CCOC(=O)c1cc(C)n(CC2CCC(C(=O)Nc3ccc(C(=O)OC)cc3)CC2)c1C (centres unmarked) | -93.04
CCNC(=O)c1cnc2sc(N3CCC(C)CC3)nn2c1=O | -2.999
COc1ccc(-c2c3c(=O)n(C)c(=O)n(C)c3c3n2-c2ccccc2NC3c2ccc(OC)cc2)cc1 (centres unmarked) | -1.769
Cc1c(NC(=O)c2cc(-c3ccc(O)cc3)on2)c(=O)n(-c2ccccc2)n1C | -19.27
Cc1ccc(NC(=O)c2cc3ccccn3n2)cc1F | 9.889
CCCCOc1ccc(S(=O)(=O)Nc2ccc(-c3ccc(N4CCC(C)CC4)nn3)cc2)cc1 | -15.06
O=C(Nc1cc(C(F)(F)F)ccc1Cl)c1cnn(-c2ccccc2)c1-n1cccc1 | -93.24
CCOc1ccc(S(=O)(=O)N2CCC(N3CCN(Cc4ccc(F)cc4)C(=O)C3=O)CC2)cc1 | -26.59
CCCCn1c(SCC(=O)c2ccccc2)nc2sc3c(c2c1=O)CCCC3 | -1.754
COc1ccccc1CNC(=O)CCc1c(C)c2ccc(OC)c(C)c2oc1=O | -16.12
COc1ccc(-c2cc(C(=O)Nc3sc4c(c3C(N)=O)CCC(C)C4)no2)cc1 (centres unmarked) | -4.855
CCOC(=O)c1ccc(N2CCN(c3cc(C)ccc3C)CC2)c(NC(=O)Nc2ccccc2)c1 | -32.44
COc1ccc(S(=O)(=O)Nc2ccc(-c3ccc(N4CCCC4)nn3)cc2)cc1F | -6.832
CCOc1ccc(C2C(=O)N(C3CCCCC3)CC(=O)N2C2CCCC2)cc1OC (centres unmarked) | -32.53
Cc1ccccc1NC(=O)c1c(C)oc2ccc(O)c(CN3CCC(C)CC3)c12 | -29.16
COc1ccc(C2C(=O)N(C3CCCCCC3)CC(=O)N2Cc2ccc(C)cc2)cc1 (centres unmarked) | -31.78
Cc1nn(-c2ccc(N3CCCC3)nn2)c(C)c1CCC(=O)Nc1ccccc1 | -17.2
COc1ccc(OC)c(-c2cc(C(=O)NCc3ccc(Cl)cc3)no2)c1 | -18.49
COc1ccc(OC)c(NC(=O)CSc2nc(-c3ccccc3C)nc3cc(=O)[nH]n23)c1 | -9.429
Cn1c(=O)c2c(-c3ccccc3)n3c(c2n(C)c1=O)C(c1ccco1)Nc1ccccc1-3 (centres unmarked) | -2.449
CCOc1ccccc1NC(=O)c1ccc(C(=O)Nc2ccccc2OCC)cc1 | -6.986
Cc1ccc(-n2ncc(C(=O)NCc3ccccc3C)c2-n2cccc2)cc1 | -47.02
CCS(=O)(=O)N1CCC(n2c(C(F)(F)F)nc3cccnc32)CC1 | -12.46
Cn1c(=O)n(C)c2cc(NS(=O)(=O)c3ccc(Br)cc3)c(NCc3ccccc3)cc21 | 67.71
Cc1ccc(C)c(OCCn2c(-c3ccc(Cl)cc3)nc3ccccc3c2=O)c1C | -9.112
COC(=O)CN1C(=O)CSc2ccc(S(=O)(=O)Nc3cccc(C)c3C)cc21 | -35.19
CCN(CC)CCCNC(=O)c1cc(-c2ccc(OC)c(OC)c2)on1 | -11.32
CC(=O)c1c(C)oc2ccc(NS(=O)(=O)c3ccc(C(C)C)cc3)cc12 | -92.25
COc1ccc(NC(=O)CCc2c(C)nn(-c3ccc(N4CCCCC4)nn3)c2C)cc1Cl | 5.336
COc1ccc(N2CCN(c3nc4ccc(C)cc4n4nnnc34)CC2)cc1 | -12.25
Cc1nc2scc(C)n2c(=O)c1S(=O)(=O)Nc1ccc(N2CCN(S(C)(=O)=O)CC2)cc1 | -57.79
CC(=O)c1cc2c(cc1NC(=O)c1c(C)nn(-c3ccc(C)cc3)c1-n1cccc1)OCO2 | -17.15
Clc1ccccc1-c1nnc(COc2ccccc2)o1 | 22.51
CCOC(=O)c1cccc(NC(=O)CC2C(=O)N(c3ccc(F)cc3)C(=O)N2Cc2cccc(OC)c2)c1 (centres unmarked) | -14.88
COC(=O)c1c(NC(=O)CCCOc2ccccc2C)sc2c1CCC2 | -14.09
CCOc1ccccc1NC(=O)CC(c1ccc(F)cc1)N1Cc2ccccc2C1=O (centres unmarked) | -25.97
Cc1nn(CC(=O)NC2CCCCC2)c(=O)c2cc3cc(F)ccc3n12 | -1.842
COc1ccc(S(=O)(=O)N2CCC(N3CCN(Cc4ccccc4)C(=O)C3=O)CC2)cc1 | -1.384
CCOc1ccccc1CNC(=O)c1nc(-c2ccc(Cl)cc2)n2c1CCCCC2 | -57.91
CCOC(=O)CSc1nc2sc3c(c2c(=O)n1-c1ccccc1)CC(C(C)C)OC3 (centres unmarked) | -18.29
Cc1ccc(C)c(N2CCN(C(=O)CCc3c(C)nn(-c4ccc(N5CCCC5)nn4)c3C)CC2)c1 | -61.97
CN(C)S(=O)(=O)N1CCC(N2CCN(Cc3ccc(F)cc3)C(=O)C2=O)CC1 | -10.68
Cc1ccc(NC(=O)c2c(C)oc3ccc(O)c(CN4CCCC4)c23)c(C)c1 | -13.02
COc1ccc(N(C(=O)COc2c(C)cccc2C)S(=O)(=O)c2ccc(Cl)cc2)cc1 | -50.94
COC(=O)c1ccc(Cl)c(NC(=O)C2CCN(S(=O)(=O)Cc3ccccc3)CC2)c1 | -23.87
COc1ccc2c(C)c(CC(=O)NCCc3ccccc3)c(=O)oc2c1OC | -12
CCC1CCc2c(sc(NC(=O)C3c4ccccc4Oc4ccccc43)c2C#N)C1 (centres unmarked) | -35.36
O=C(NCc1ccccc1Cl)C1CCN(S(=O)(=O)Cc2ccccc2)CC1 | -13.54
CCc1ccc(NC(=O)CC2C(=O)N(c3cccc(OC)c3)C(=O)N2Cc2ccc(F)cc2)cc1 (centres unmarked) | -30.03
COc1ccc(C(=O)CC2(O)C(=O)N(Cc3ccccc3)c3ccc(Br)cc32)cc1 (centres unmarked) | -19.06
COc1ccc(S(=O)(=O)Nc2cccc(-c3ccc(N4CCC(C)CC4)nn3)c2)cc1OC | 28.5

Some entries from above, unchanged:

| Compound | activity change (%) |
|---|---|
| `Cc1ccccc1NC(=O)c1c(C)oc2ccc(O)c(CN3CCC(C)CC3)c12` | -29.16 |
| `CN(C)S(=O)(=O)N1CCC(N2CCN(Cc3ccc(F)cc3)C(=O)C2=O)CC1` | -10.68 |
| `COc1ccc(-c2c3c(=O)n(C)c(=O)n(C)c3c3n2-c2ccccc2NC3c2ccc(OC)cc2)cc1` (centres unmarked) | -1.769 |
| `CCOC(=O)c1cccc(NC(=O)CC2C(=O)N(c3ccc(F)cc3)C(=O)N2Cc2cccc(OC)c2)c1` (centres unmarked) | -14.88 |

Source: PubChem BioAssay AID1508623 (NCATS, 2021).